Patent US20100204091A1
Positions count from the first letter of the chain named. Numbers in names are those of the source. These are yes or no findings as the source states them, for the method shown. For part of these data: In cells and extracts the contact can be indirect. Some entries that bind do so weakly or less than the wild type. For part of these data: Sequences can lack the tags named with a protein. One block for each binder: values may come before it.

Sequences of proteins named here, by UniProt entry; tags and fusion partners are left off. Residues count along the entry.
UniProt P26842, residues 20-260: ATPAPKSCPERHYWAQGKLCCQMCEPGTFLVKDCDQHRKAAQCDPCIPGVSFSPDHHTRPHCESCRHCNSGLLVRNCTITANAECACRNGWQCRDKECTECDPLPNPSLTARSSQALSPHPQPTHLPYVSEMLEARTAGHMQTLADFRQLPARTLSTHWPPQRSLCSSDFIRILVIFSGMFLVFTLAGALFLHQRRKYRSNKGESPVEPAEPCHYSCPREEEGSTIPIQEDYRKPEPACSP

Columns and labels:
FLAG tagged TRAF2 = biological target: T1, FLAG tagged TRAF2 (UniProt Q12933); test: co-immunoprecipitation with anti FLAG-M2 beads from HEK 293T cells, anti HIS blot
T1 sequence (looked up): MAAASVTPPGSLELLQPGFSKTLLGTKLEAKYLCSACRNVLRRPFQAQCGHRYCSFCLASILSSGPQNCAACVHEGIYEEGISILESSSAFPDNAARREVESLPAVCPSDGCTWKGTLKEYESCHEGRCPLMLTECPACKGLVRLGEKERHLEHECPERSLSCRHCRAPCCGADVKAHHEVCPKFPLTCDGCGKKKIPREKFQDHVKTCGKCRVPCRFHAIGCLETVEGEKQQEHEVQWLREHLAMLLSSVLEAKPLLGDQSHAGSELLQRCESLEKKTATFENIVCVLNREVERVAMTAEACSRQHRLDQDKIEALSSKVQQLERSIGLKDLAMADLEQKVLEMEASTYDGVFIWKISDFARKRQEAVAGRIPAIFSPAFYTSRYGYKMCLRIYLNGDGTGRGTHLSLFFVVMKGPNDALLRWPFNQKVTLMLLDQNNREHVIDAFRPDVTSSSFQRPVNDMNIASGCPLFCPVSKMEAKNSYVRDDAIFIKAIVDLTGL

[1] = biological target: NF-κB-inducing kinase, NIK, (MAP3K14) (human) (UniProt Q99558); test: co-immunoprecipitation with NIK from Ramos cells expressing myc-tagged NIK after CD70; also from BJAB cells after CD40L
[2] = biological target: NF-κB-inducing kinase, NIK, (MAP3K14) (human) (UniProt Q99558); test: co-immunoprecipitation from Ramos cells after CD70; also BJAB cells (NIK stable, SIVA2 transduced) after long term CD40 ligand, but not TRAIL
SIVA1 (human) = biological target: T2, SIVA1 (human) (UniProt O15304); test: co-immunoprecipitation from transiently transfected HEK 293T cells
T2 sequence: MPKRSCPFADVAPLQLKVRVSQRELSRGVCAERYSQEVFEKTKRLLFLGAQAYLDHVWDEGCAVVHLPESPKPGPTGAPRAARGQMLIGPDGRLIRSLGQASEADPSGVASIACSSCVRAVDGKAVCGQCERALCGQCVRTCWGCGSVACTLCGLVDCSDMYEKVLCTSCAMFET

SIVA2 (human) [3] = biological target: T3, SIVA2 (human) (UniProt O15304); test: co-precipitation of NIK, SIVA2 and TRAF3 from transiently transfected HEK 293T cells (anti FLAG IP of SIVA2, anti-TRAF3 blot)
T3 sequence: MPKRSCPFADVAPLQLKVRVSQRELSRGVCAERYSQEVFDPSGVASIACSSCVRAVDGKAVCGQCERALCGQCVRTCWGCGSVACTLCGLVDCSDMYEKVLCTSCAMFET

SIVA2 (human) [4] = biological target: T3, SIVA2 (human); test: co-immunoprecipitation with anti-NIK from HeLa cells, SIVA2 blot
[5] = biological target: NF-κB-inducing kinase, NIK, (MAP3K14) (human) (UniProt Q99558); test: co-immunoprecipitation with anti-NIK from transfected HeLa cells
CD27 receptor [6] = biological target: CD27 receptor (UniProt P26842); test: receptor complex IP through FLAG-CD70 from Ramos cells
CD27 receptor [7] = biological target: CD27 receptor (UniProt P26842); test: receptor complex IP through FLAG-CD70 from Ramos cells, anti-TRAF2 blot
CD27 receptor [8] = biological target: CD27 receptor (UniProt P26842); test: anti-FLAG IP of the CD27 receptor complex from 293-CD27 cells treated with FLAG-CD70

binding (FLAG tagged TRAF2): binds
binding [1]: binds
binding [2]: binds
B1: SIVA2 (protein)
chain: T3 sequence

binding (FLAG tagged TRAF2): binds
B2: SIVA2 1-81 (protein)
chain: MPKRSCPFADVAPLQLKVRVSQRELSRGVCAERYSQEVFDPSGVASIACSSCVRAVDGKAVCGQCERALCGQCVRTCWGCG

binding (SIVA1 (human)): binds
B3: aly NIK (human NIK with a mutation (G860R) corresponding to the mouse aly mutation) (enzyme, UniProt Q99558 1-947, looked up)
chain: MAVMEMACPGAPGSAVGQQKELPKAKEKTPPLGKKQSSVYKLEAVEKSPVFCGKWEILNDVITKGTAKEGSEAGPAAISIIAQAECENSQEFSPTFSERIFIAGSKQYSQSESLDQIPNNVAHATEGKMARVCWKGKRRSKARKKRKKKSSKSLAHAGVALAKPLPRTPEQESCTIPVQEDESPLGAPYVRNTPQFTKPLKEPGLGQLCFKQLGEGLRPALPRSELHKLISPLQCLNHVWKLHHPQDGGPLPLPTHPFPYSRLPHPFPFHPLQPWKPHPLESFLGKLACVDSQKPLPDPHLSKLACVDSPKPLPGPHLEPSCLSRGAHEKFSVEEYLVHALQGSVSSGQAHSLTSLAKTWAARGSRSREPSPKTEDNEGVLLTEKLKPVDYEYREEVHWATHQLRLGRGSFGEVHRMEDKQTGFQCAVKKVRLEVFRAEELMACAGLTSPRIVPLYGAVREGPWVNIFMELLEGGSLGQLVKEQGCLPEDRALYYLGQALEGLEYLHSRRILHGDVKADNVLLSSDGSHAALCDFGHAVCLQPDGLGKSLLTGDYIPGTETHMAPEVVLGRSCDAKVDVWSSCCMMLHMLNGCHPWTQFFRGPLCLKIASEPPPVREIPPSCAPLTAQAIQEGLRKEPIHRVSAAELGGKVNRALQQVGGLKSPWRGEYKEPRHPPPNQANYHQTLHAQPRELSPRAPGPRPAEETTGRAPKLQPPLPPEPPEPNKSPPLTLSKEESGMWEPLPLSSLEPAPARNPSSPERKATVPEQELQQLEIELFLNSLSQPFSLEEQEQILSCLSIDSLSLSDDSEKNPSKASQSSRDTLSSGVHSWSSQAEARSSSWNMVLARGRPTDTPSYFNRVKVQIQSLNGEHLHIREFHRVKVGDIATGISSQIPAAAFSLVTKDGQPVRYDMEVPDSGIDLQCTLAPDGSFAWSWRVKHGQLENRP

binding (SIVA2 (human) [3]): binds
B4: kinase-dead NIK (NIK KK429,430AA) (enzyme, human, UniProt Q99558 1-947, looked up)
chain: B3 chain with K429A, K430A, R860G

binding (SIVA2 (human) [4]): binds
B5: NIK 704* (amino acids 702-705 PAEE mutated to PAAA) (enzyme, human, UniProt Q99558 1-947, looked up)
chain: B3 chain with E704A, E705A, R860G

binding (SIVA2 (human) [4]): binds
B6: NIK 304* (amino acids 332-335, SVEE mutated to SVAA) (enzyme, human, UniProt Q99558 1-947, looked up)
chain: B3 chain with E334A, E335A, R860G

binding [5]: binds
B7: SIVA-C (C-terminal part of SIVA, amino acids 123-175 in SIVA1 or 58-110 in SIVA2) (protein)
chain: KAVCGQCERALCGQCVRTCWGCGSVACTLCGLVDCSDMYEKVLCTSCAMFET

binding (CD27 receptor [6]): binds
binding (CD27 receptor [7]): binds
binding (CD27 receptor [8]): binds
B8: TRAF2 (endogenous, recruited to the CD27 receptor) (protein, UniProt Q12933 2-501, looked up)
chain: AAASVTPPGSLELLQPGFSKTLLGTKLEAKYLCSACRNVLRRPFQAQCGHRYCSFCLASILSSGPQNCAACVHEGIYEEGISILESSSAFPDNAARREVESLPAVCPSDGCTWKGTLKEYESCHEGRCPLMLTECPACKGLVRLGEKERHLEHECPERSLSCRHCRAPCCGADVKAHHEVCPKFPLTCDGCGKKKIPREKFQDHVKTCGKCRVPCRFHAIGCLETVEGEKQQEHEVQWLREHLAMLLSSVLEAKPLLGDQSHAGSELLQRCESLEKKTATFENIVCVLNREVERVAMTAEACSRQHRLDQDKIEALSSKVQQLERSIGLKDLAMADLEQKVLEMEASTYDGVFIWKISDFARKRQEAVAGRIPAIFSPAFYTSRYGYKMCLRIYLNGDGTGRGTHLSLFFVVMKGPNDALLRWPFNQKVTLMLLDQNNREHVIDAFRPDVTSSSFQRPVNDMNIASGCPLFCPVSKMEAKNSYVRDDAIFIKAIVDLTGL
